Assay results as given in patent publication CN116410313A.
Results are given in words; binding and its absence hold for the method and conditions named. Some binding calls cover weakened binding; strength is not graded here.

By UniProt entry, the sequences of proteins in these tests, tags left out. Where a name states a change or a piece, a line headed by the entry shows the natural chain unless it says otherwise. Residues count along the entry.
UniProt P28908: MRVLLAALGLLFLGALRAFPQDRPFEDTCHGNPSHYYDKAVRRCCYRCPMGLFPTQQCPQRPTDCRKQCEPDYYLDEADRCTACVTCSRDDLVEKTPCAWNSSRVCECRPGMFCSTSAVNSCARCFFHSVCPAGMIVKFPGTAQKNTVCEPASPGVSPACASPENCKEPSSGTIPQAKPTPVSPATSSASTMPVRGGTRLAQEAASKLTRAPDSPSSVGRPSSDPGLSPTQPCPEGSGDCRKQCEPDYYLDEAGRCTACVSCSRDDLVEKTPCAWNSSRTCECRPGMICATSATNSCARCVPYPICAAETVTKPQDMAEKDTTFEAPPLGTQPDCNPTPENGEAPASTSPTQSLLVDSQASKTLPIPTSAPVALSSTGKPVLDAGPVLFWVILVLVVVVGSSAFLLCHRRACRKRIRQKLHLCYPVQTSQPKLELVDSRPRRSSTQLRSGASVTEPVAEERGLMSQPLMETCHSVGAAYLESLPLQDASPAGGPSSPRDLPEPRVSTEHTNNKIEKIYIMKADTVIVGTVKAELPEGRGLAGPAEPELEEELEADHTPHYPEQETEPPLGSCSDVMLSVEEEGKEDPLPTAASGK
CD30 on CHO-CD30重组细胞株: residues 19-595 of P28908
CD30 Protein, Human, Recombinant (Fc Tag): residues 19-379 of P28908

How the values were obtained:
CD30 on CHO-CD30重组细胞株 [1] = target: CD30 on CHO-CD30重组细胞株 (UniProt P28908); test: flow cytometry on CHO-CD30 cells (discussion)
CD30 on CHO-CD30重组细胞株 [2] = target: CD30 on CHO-CD30重组细胞株 (UniProt P28908); test: flow cytometry, chimeric antibody 293F supernatant on CHO-CD30 cells
CD30 on CHO-CD30重组细胞株 [3] = target: CD30 on CHO-CD30重组细胞株 (UniProt P28908); test: flow cytometry, humanized antibody 293F supernatant on CHO-CD30 cells
[4] = target: CD30 Protein, Human, Recombinant (Fc Tag) (human) (UniProt P28908); test: SPR (BiaCore T200), CD30-Fc immobilised on CM5 chip, antibody as analyte

Binder	binding (CD30 on CHO-CD30重组细胞株 [1])	binding (CD30 on CHO-CD30重组细胞株 [2])	binding (CD30 on CHO-CD30重组细胞株 [3])	binding [4]
7-H11-E4-F9嵌合抗体 (antibody, V domains shown) VH: EVQLQQSGAELVRPGASVKLSCKASGYSFTSYWMNWVKQRPGQGLEWIGMIHPSDSETRLNQKFKDKATLTVDKSSSTAYMQLSSPTSEDSAVYYCASPMDYYYAMDYWGQGTSVTVSS VL: DIVLTQSPASLAVSLGQRATISCRASESVDSYGNSFMHWYQQKPGQPPKLLIYRASNLESGIPARFSGSGSRTDFTLTINPVEADDVATYYCQQSNEDPTWTFGGGTKLEIK	binds	binds		
人源化抗体 7-A2-E8-E6-hVH-0917 + 7-A2-E8-E6-hVL-N1 (antibody, V domains shown) VH: EVQLVQSGAEVKKPGSSVKVSCKASGYAFSSYWMNWVKQAPGQGLEWIGQIYPGDGDTNYNGKFKGRVTLTADKSSSTAYMELSSLRSEDTAVYFCARRINGNFAMDYWGQGTLVTVSS VL: EIVLTQSPDSLAVSLGERATINCRASESLEYYGTSLMLWYQQKPGQPPKLLIYSASNVESGVPDRFSGSGSGTDFSLTISSLEPEDIAMYFCQQRRKVPSTFGGGTKVEIK	binds		binds	
人源化抗体7-A2-E8-E6-hVH+hVL (antibody, V domains shown) VH: EVQLVQSGAEVKKPGSSVKVSCKASGYAFSSYWMNWVRQAPGQGLEWMGQIYPGDGDTNYNGKFQGRVTLTADKSTSTAYMELSSLRSEDTAVYFCARRINGNFAMDYWGQGTLVTVSS VL: EIVLTQSPATLSLSPGERATLSCRASESLEYYGTSLMLWYQQKPGQPPKLLIYSASNVETGIPARFSGSGSGTDFTLTISSLEPEDFAVYFCQQRRKVPSTFGGGTKVEIK	binds		binds	binds
人源化抗体7-A2-E8-E6-hVH-0917+hVL-0917 (antibody, V domains shown) VH: EVQLVQSGAEVKKPGSSVKVSCKASGYAFSSYWMNWVKQAPGQGLEWIGQIYPGDGDTNYNGKFKGRVTLTADKSSSTAYMELSSLRSEDTAVYFCARRINGNFAMDYWGQGTLVTVSS VL: EIVLTQSPATLSLSPGERATLSCRASESLEYYGTSLMLWYQQKPGQPPKLLIYSASNVESGIPARFSGSGSGTDFSLTISSLEPEDFAMYFCQQRRKVPSTFGGGTKVEIK	binds		binds	binds
7-A2-E8-E6嵌合抗体 (antibody, V domains shown) VH: EVQLQQSGAELVRPGSSVKISCKASGYAFSSYWMNWVKQRPGQGLEWIGQIYPGDGDTNYNGKFKGKATLTADKSSSTAYMQLSSLTSEDSAVYFCARRINGNFAMDYWGQGTSVTVSS VL: EIVLTQSPASLAVSLGQRATISCRASESLEYYGTSLMLWYQQKPGQPPKLLIYSASNVESGVPARFSGSGSGTDFSLNIHPVEEDDIAMYFCQQRRKVPSTFGGGTKLEIK	binds	binds		binds
7-B8-G10-D10嵌合抗体 (antibody, V domains shown) VH: EVMLVESGGGLVQPGGSLKLSCATSGFTFSDYYMYWVRQTPEKRLEWVAYISNGGGYTFYSDTVKGRFTISRDNTKNTLSLQMSRLKSEDTAMYYCARQGILDGGAYWGQGTLLTVSA VL: DIVMTQSPATLSVTPGDSVSLSCRASQNVTNNLHWYQQKSHESPRLLIKYASQSISGIPSRFSGSGSGTDFTLSINNVETEDFGMYFCQQTNSWPLTFGAGTKLELK	binds	binds		
8-F2-H8-D6嵌合抗体 (antibody, V domains shown) VH: EVTLKVSGPGISQPSQTLSLTCSFSGFSLSTYGMGVSWIRQPSGKGLEWLAHIYWDDDKRYNPSLKSRLTISKDTSSNQVFLKITSVDTADTATYYCARRAELRDFYFDYWGQGTTLTVSS VL: DIVMTQSPKFMSTSVGDRVSVTCKASQNVNTNVAWYQQKPGQSPKALIYSASYRYSGVPDRFTGSGSGTDLTLTIINIQSEDLAEYFCQQYNTYPLTFGVGTKLELK	binds	binds		
人源化抗体 7-A2-E8-E6-hVH + 7-A2-E8-E6-hVL-0917 (antibody, V domains shown) VH: EVQLVQSGAEVKKPGSSVKVSCKASGYAFSSYWMNWVRQAPGQGLEWMGQIYPGDGDTNYNGKFQGRVTLTADKSTSTAYMELSSLRSEDTAVYFCARRINGNFAMDYWGQGTLVTVSS VL: EIVLTQSPATLSLSPGERATLSCRASESLEYYGTSLMLWYQQKPGQPPKLLIYSASNVESGIPARFSGSGSGTDFSLTISSLEPEDFAMYFCQQRRKVPSTFGGGTKVEIK	binds		binds	
人源化抗体 7-A2-E8-E6-hVH + 7-A2-E8-E6-hVL-N1 (antibody, V domains shown) VH: EVQLVQSGAEVKKPGSSVKVSCKASGYAFSSYWMNWVRQAPGQGLEWMGQIYPGDGDTNYNGKFQGRVTLTADKSTSTAYMELSSLRSEDTAVYFCARRINGNFAMDYWGQGTLVTVSS VL: EIVLTQSPDSLAVSLGERATINCRASESLEYYGTSLMLWYQQKPGQPPKLLIYSASNVESGVPDRFSGSGSGTDFSLTISSLEPEDIAMYFCQQRRKVPSTFGGGTKVEIK	binds		binds	
人源化抗体 7-A2-E8-E6-hVH-0917 + 7-A2-E8-E6-hVL (antibody, V domains shown) VH: EVQLVQSGAEVKKPGSSVKVSCKASGYAFSSYWMNWVKQAPGQGLEWIGQIYPGDGDTNYNGKFKGRVTLTADKSSSTAYMELSSLRSEDTAVYFCARRINGNFAMDYWGQGTLVTVSS VL: EIVLTQSPATLSLSPGERATLSCRASESLEYYGTSLMLWYQQKPGQPPKLLIYSASNVETGIPARFSGSGSGTDFTLTISSLEPEDFAVYFCQQRRKVPSTFGGGTKVEIK	binds		binds	
